The other results are listed elsewhere or left out.
Molecular target: T1, OsSMF1 (Oryza sativa, UniProt Q6ZLB0 1-436)
T1 sequence: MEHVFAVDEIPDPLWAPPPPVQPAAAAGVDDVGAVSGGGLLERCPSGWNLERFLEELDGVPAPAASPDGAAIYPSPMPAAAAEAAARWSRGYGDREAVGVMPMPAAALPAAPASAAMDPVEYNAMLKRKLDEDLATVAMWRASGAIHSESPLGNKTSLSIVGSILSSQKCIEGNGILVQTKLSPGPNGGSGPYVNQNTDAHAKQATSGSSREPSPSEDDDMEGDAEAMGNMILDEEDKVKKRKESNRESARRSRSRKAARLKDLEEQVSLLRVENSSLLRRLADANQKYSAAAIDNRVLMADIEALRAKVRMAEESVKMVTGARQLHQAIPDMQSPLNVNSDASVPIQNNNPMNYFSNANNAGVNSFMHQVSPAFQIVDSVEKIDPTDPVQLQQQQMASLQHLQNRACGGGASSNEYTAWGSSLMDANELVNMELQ
Test: protein-binding microarray (RPBM); PBS, 2% BSA, 51.3 ng/ul salmon testes DNA, 50 uM zinc acetate, 200 nM TF, 25 C, 1 h; high values mean tight binding
Conditions: protein: recombinant; tags: N-terminal polyhistidine and DsRed monomer fusion (pET32a); chain copies: 2; label: CyDye5-dUTP incorporated in the synthesized complementary strand; 3' TTTTT single-stranded linker to array surface; dsDNA, one strand shown
How it was run: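 A custom Agilent array was converted to double-stranded form by primer extension with Cy5-dUTP and blocked with 2% BSA. Protein at 200 nM in PBS with 2% BSA, salmon testes DNA and 50 µM zinc acetate was applied for 1 h at 25 °C, followed by washing. The proteins were polyhistidine–DsRed N-terminal fusions of transcription factors, expressed in E. coli BL21-CodonPlus and Ni–NTA-purified. The binding signal is per-feature fluorescence intensity (arbitrary units) from an Axon 4000B scanner.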

| Sequence | binding signal |
| --- | --- |
| CGATAACAGCTTGCATTGCTTGTCATTTGAAAGATCAGCTCGGAGTCACCTAGTGCAG | 3630 fluorescence intensity (a.u.) |
| AGACAGCTGTTGCCTTTAGACTTTACAGCTGGGACTTTAACGGAGTCACCTAGTGCAG | 3580 fluorescence intensity (a.u.) |
| ATGTCCGGCCATCTCCTCAAGGTCACGCTTGCGTCCTCCCCGGAGTCACCTAGTGCAG | 3190 fluorescence intensity (a.u.) |
| TAAACCGATACATAACACTTGATAAAAGTGACACGGCAGCCGGAGTCACCTAGTGCAG | 5430 fluorescence intensity (a.u.) |
| AGCCGTGCTGTGTCGTGTCGTGCACTCGTGCGTATGCCGTCGGAGTCACCTAGTGCAG | 3520 fluorescence intensity (a.u.) |
| CTGGAGAGATGGCGTCGAGTACCAGCGACATCCCCGAGGGCGGAGTCACCTAGTGCAG | 16700 fluorescence intensity (a.u.) |
| GAAGGATTAATGAATTAACCACGTGCGCAAAATCACACGTCGGAGTCACCTAGTGCAG | 4550 fluorescence intensity (a.u.) |
| AGCGTCGCGCCGCGCCACGCCACGCCACGCCACCCCACCACGGAGTCACCTAGTGCAG | 5830 fluorescence intensity (a.u.) |
| GGATCAAATTGCCACGTATGCGCCACGTCAATGCCACATCCGGAGTCACCTAGTGCAG | 27400 fluorescence intensity (a.u.) |
| ATTCCTATCATTGGAGTATGTGTGCACGTCATTAGTGCCACGGAGTCACCTAGTGCAG | 6500 fluorescence intensity (a.u.) |
| ACATTTGTTTTGCACGAAACGTGGCATTAAGAAATGAAGACGGAGTCACCTAGTGCAG | 3230 fluorescence intensity (a.u.) |
| GACCCTTGTGAGGGCACTATATATAGCCCTCCACCTCAGTCGGAGTCACCTAGTGCAG | 26200 fluorescence intensity (a.u.) |
| TCCCTCCGTGGACGTGGACTTGGTCCGGTCTTCCTTCCCTCGGAGTCACCTAGTGCAG | 5660 fluorescence intensity (a.u.) |
| AACAAACTGCCAGATAAATTACCCTTCTTCCAGCTCGGATCGGAGTCACCTAGTGCAG | 3910 fluorescence intensity (a.u.) |
| TCCCGCCCGCCACGCGATTCAAACGCCCTTCCCGTGGGCCCGGAGTCACCTAGTGCAG | 3250 fluorescence intensity (a.u.) |
| CATCCATCCATCCATCGCGGCGCATCGTACGGTCCAGAGCCGGAGTCACCTAGTGCAG | 27000 fluorescence intensity (a.u.) |
| GGGTCGTGCCCATGCTTGGGCTGCACCCTTGGCACGGTGGCGGAGTCACCTAGTGCAG | 3260 fluorescence intensity (a.u.) |
| CTAAAGAAGAAACACAAAGAAACCAACTCCGACGACCACCCGGAGTCACCTAGTGCAG | 3300 fluorescence intensity (a.u.) |
| AAATCAGGAAATGAAAAGCTAGGGTTTTAGGTATTGTAATCGGAGTCACCTAGTGCAG | 40800 fluorescence intensity (a.u.) |
| GCTATGTTCAATTCACACTTGTTGAAATTTCTACCATGTACGGAGTCACCTAGTGCAG | 3280 fluorescence intensity (a.u.) |
| TAGCAAATCGATTCTGCCACGTGTCTCACTCCTGCACACACGGAGTCACCTAGTGCAG | 32600 fluorescence intensity (a.u.) |

| Sequence | binding signal |
| --- | --- |
| TTGTTTATTTTATCAATTGACGTGTTCATGCAATCCACAACGGAGTCACCTAGTGCAG | 3420 fluorescence intensity (a.u.) |
| TGTTGCGCCGTCACTCGTAGACTACTCCATCTCGCTCGCCCGGAGTCACCTAGTGCAG | 3670 fluorescence intensity (a.u.) |
| GTTCCCCTTGTACCCGCTCGTCACGTTGGCGCCGCGCACGCGGAGTCACCTAGTGCAG | 5570 fluorescence intensity (a.u.) |
| GTCGGCCGATCGATCGATCATACCACGGGCCGATTCGTGGCGGAGTCACCTAGTGCAG | 24500 fluorescence intensity (a.u.) |
| GGCATCGTCGACGGGAAGACGGACGCCATGAATTCCGTCACGGAGTCACCTAGTGCAG | 3500 fluorescence intensity (a.u.) |
| GGGGCGCCTTCTTCTCCACGCCGCCGCCGCGTGGGCCAGGCGGAGTCACCTAGTGCAG | 3460 fluorescence intensity (a.u.) |
| CCCGTGACGTGTCGGCATCGGAGGGCCCCTCGTCGGGGTCCGGAGTCACCTAGTGCAG | 10200 fluorescence intensity (a.u.) |
| ACACACGAGCAAAACTACTCCGACTGACAGCACGGGACCCCGGAGTCACCTAGTGCAG | 3330 fluorescence intensity (a.u.) |
| TCCATTTTGGACCGCTGACGAGGACGATAGGAGCGTGAGTCGGAGTCACCTAGTGCAG | 4710 fluorescence intensity (a.u.) |
| ATCAAGTCACCTCTTGATCACAGTAAGATGTGTCACTTCCCGGAGTCACCTAGTGCAG | 4150 fluorescence intensity (a.u.) |
| TAATCTGGAATTATGACAATGTAGGGCACAATAACCAAGTCGGAGTCACCTAGTGCAG | 3510 fluorescence intensity (a.u.) |
| ATGACTGATAATCTAAGACATGAAATAACTGAAATTCTGTCGGAGTCACCTAGTGCAG | 22900 fluorescence intensity (a.u.) |
| GTGCGATCGTTCGTTGCAAGTAGCAATTCGTCAGCTCTGCCGGAGTCACCTAGTGCAG | 4480 fluorescence intensity (a.u.) |
| AGTGTTGATCGAGTCGTGGGTGTGCATGGTGTGCGTGGCGCGGAGTCACCTAGTGCAG | 3930 fluorescence intensity (a.u.) |
| CCCGCAGCGTCCGGTGTCATCGATCGTGGCAGGGAAGTCCCGGAGTCACCTAGTGCAG | 3480 fluorescence intensity (a.u.) |
| TGAGATATATATTTCGTATGTATATAGAGAAATAAAGAAACGGAGTCACCTAGTGCAG | 57100 fluorescence intensity (a.u.) |
| CCAAATCAAACGGCCACCTGTACCCTACGTGCCACTCCTCCGGAGTCACCTAGTGCAG | 5030 fluorescence intensity (a.u.) |
| AAAAGAACGTGGACAAACGGGAGTAAGCACACGGCGGCGACGGAGTCACCTAGTGCAG | 3590 fluorescence intensity (a.u.) |
| TCTGAATTGGGCCCTGTCGCGAAGCCTGCCACCTGAATTGCGGAGTCACCTAGTGCAG | 3440 fluorescence intensity (a.u.) |
| CGATCTATCTTAGTTCATTCGCTGCAAATCCGACGCCTGACGGAGTCACCTAGTGCAG | 3240 fluorescence intensity (a.u.) |
| GGCAGTGGGACACGTTCGCCACTCAACCCAGCCTTCTGGTCGGAGTCACCTAGTGCAG | 3630 fluorescence intensity (a.u.) |

Shown field by field: part of the list above
GGGTCGTGCCCATGCTTGGGCTGCACCCTTGGCACGGTGGCGGAGTCACCTAGTGCAG
  binding signal: 3260 fluorescence intensity (a.u.)
CTAAAGAAGAAACACAAAGAAACCAACTCCGACGACCACCCGGAGTCACCTAGTGCAG
  binding signal: 3300 fluorescence intensity (a.u.)
